Laboratory results from US20130129730A1 (Amgen, published 2013).
No constants are given. Whether binding was seen depends on the method and setting. Some binding calls cover weakened binding; strength is not graded here.

The chains behind the UniProt entries cited, without tags or fusion partners.
UniProt Q04609: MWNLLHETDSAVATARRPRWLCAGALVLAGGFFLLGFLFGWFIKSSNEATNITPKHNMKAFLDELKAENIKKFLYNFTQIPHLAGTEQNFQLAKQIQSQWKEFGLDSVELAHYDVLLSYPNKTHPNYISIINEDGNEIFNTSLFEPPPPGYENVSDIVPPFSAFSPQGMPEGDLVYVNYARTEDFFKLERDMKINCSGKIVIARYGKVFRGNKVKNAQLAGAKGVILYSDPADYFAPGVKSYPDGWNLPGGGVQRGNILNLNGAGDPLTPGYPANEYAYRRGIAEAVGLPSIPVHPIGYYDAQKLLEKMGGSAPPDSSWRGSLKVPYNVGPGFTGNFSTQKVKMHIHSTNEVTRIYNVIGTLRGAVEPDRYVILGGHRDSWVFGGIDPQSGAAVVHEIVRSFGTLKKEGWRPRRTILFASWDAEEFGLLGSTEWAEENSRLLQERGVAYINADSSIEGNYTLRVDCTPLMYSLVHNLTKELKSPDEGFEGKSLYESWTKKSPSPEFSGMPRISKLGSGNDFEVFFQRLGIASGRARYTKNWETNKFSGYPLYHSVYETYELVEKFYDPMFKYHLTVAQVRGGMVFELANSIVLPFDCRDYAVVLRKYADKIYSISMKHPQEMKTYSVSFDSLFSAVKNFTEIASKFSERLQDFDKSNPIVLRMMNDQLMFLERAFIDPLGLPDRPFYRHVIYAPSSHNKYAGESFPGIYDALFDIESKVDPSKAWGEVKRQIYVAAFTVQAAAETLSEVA

Experiments:
human PSMA (human) [1] = target: human PSMA (human) (UniProt Q04609); assay: flow cytometry, scFv periplasmic preparation on transfected CHO cells
human PSMA (human) [2] = target: human PSMA (human) (UniProt Q04609); assay: flow cytometry, scFv periplasmic preparation on PSMA transfected CHO cells

Binder | binding (human PSMA (human) [1]) | binding (human PSMA (human) [2])
scFv PM52-C3 (scFv, Tested as periplasmic preparation from E. coli; also called PM52C3-VH-VL; not shown: His6-tag) scFv: QVQLVQSGAEVKKPGASVKLSCKASGYTFTYFDINWVRQTPEQGLEWMGGISPGDGNTNYNENFKGRVTMTRDTSSSTAYMELSRLRSDDTAVYYCARDGNFPYYAMDSWGQGTTVTVSSGGGGSGGGGSGGGGSDVVMTQSPLSLPVTLGEPASISCRSSQSLVYSNGNTYLHWYQQKPGQSPRLLIYKVSNRFSGVPDRFSGSGSGTDFTLKISRVEAEDVGVYFCSQSTHVPYTFGQGTKLEIKDYKDDDDK | binds | binds
scFv PM75-A10 (scFv, Tested as periplasmic preparation from E. coli; also called PM75A10-VH-VL; not shown: His6-tag) scFv: QVQLVQSGAEVKKPGASVKLSCKASGYTFTYFDINWVRQTPEQGLEWMGGISPGDGNTNYNENFKGRVTMTRDTSSSTAYMELSRLRSDDTAVYYCARDGNFPYYAMVNWGQGTTVTVSSGGGGSGGGGSGGGGSDVVMTQSPLSLPVTLGEPASISCRSSQSLVYSNGNTYLHWYQQKPGQSPRLLIYKVSNRFSGVPDRFSGSGSGTDFTLKISRVEAEDVGVYFCSQSTHVPYTFGQGTKLEIKDYKDDDDK | binds | binds

The remaining lines, values ahead:

binding (human PSMA (human) [1]) | binding (human PSMA (human) [2]) | Binder
binds | binds | scFv PM52-H3 (scFv, Tested as periplasmic preparation from E. coli; also called PM52H3-VH-VL; not shown: His6-tag) scFv: QVQLVQSGAEVKKPGASVKLSCKASGYTFTYFDINWVRQTPEQGLEWMGGISPGDGNTNYNENFKGRVTMTRDTSKSTAYMELSRLRSDDTAVYYCARDGNFPYYAMDSWGQGTTVTVSSGGGGSGGGGSGGGGSDVVMTQSPLSLPVTLGEPASISCRSSQSLVYSNGNTYLHWYQQKPGQSPRLLIYKVSNRFSGVPDRFSGSGSGTDFTLKISRVEAEDVGVYFCSQSTHVPYTFGQGTKLEIKDYKDDDDK
binds | binds | scFv PM91-B6 (scFv, Tested as periplasmic preparation from E. coli; also called PM91B6-VH-VL; not shown: His6-tag) scFv: QVQLVQSGAEVKKPGASVKLSCKASGYTFTYFDINWVRQTPEQGLEWMGGISPGDGNTNYNENFKGRVTMTRDTSSSTAYMELSRLRSDDTAVYYCARDGNFPYYALTNWGQGTTVTVSSGGGGSGGGGSGGGGSDVVMTQSPLSLPVTLGEPASISCRSSQSLVYSNGNTYLHWYQQKPGQSPRLLIYKVSNRFSGVPDRFSGSGSGTDFTLKISRVEAEDVGVYFCSQSTHVPYTFGQGTKLEIKDYKDDDDK
